The supplement of paper PMC8007513
Some of the results follow. Most values come without repeats; read them as rough.

system: Saccharomyces cerevisiae BY4743; assay: growth (OD600) relative to untreated control; higher = less growth inhibition; conditions: compound concentration: 133 uM; 20 h
Description: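 NMCCC compounds (133 uM, no IPBC) tested alone against Saccharomyces cerevisiae BY4743 in YPD, 96-well plates, starting OD600 ~0.1. Growth was read as OD600 at 20 h and expressed as % of the untreated control. Single pass.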

Row | SMILES | growth
1 | CCCCn1c(COC(=O)c2ccc(Cl)s2)nc2cc(S(N)(=O)=O)ccc21 | 96.5%
2 | CCc1c(C)nc(SCC(=O)N2CCN(c3ccccc3OC)CC2)nc1O | 100%
3 | Cc1nc2ccc(S(=O)(=O)NC(CC(C)C)C(=O)N3CCCCCC3)cc2s1 (configuration not stated) | 107%
4 | CCn1c(NC(=O)c2cc(Cl)c(OC)c(OC)c2)nc2ccccc21 | 98.7%
5 | C=C1N(CCc2ccccn2)C(=O)OC12CCCCC2 | 84.3%
6 | CCCN(CCC)S(=O)(=O)c1ccc2c(c1)N(CC(=O)OC)C(=O)CS2 | 112%
7 | CCCCN(C(=O)c1noc2c1CC(C)CC2)C1CCN(C(C)=O)CC1 (configuration not stated) | 106%
8 | COC(=O)c1cc2oc(C)cc2n1CC(=O)N1CC(C)CC(C)C1 (configuration not stated) | 104%
9 | CCOC(=O)c1c(NC(=O)CN2CC(C)OC(C)C2)sc(C(=O)NC)c1C (configuration not stated) | 64.4%
10 | CC(Oc1ccc(Cl)cc1Cl)C(=O)Nc1ccc(S(=O)(=O)N2CCOCC2)cc1 (configuration not stated) | 116%
11 | CCOC(=O)N1CCN(c2ccc(S(N)(=O)=O)cn2)CC1 | 102%
12 | COc1ccc(-n2cc(C#N)c3cccnc32)cc1 | 78.7%
13 | Cc1cc(C)c(S(=O)(=O)NCC(=O)Nc2ccc(C(N)=O)cc2)c(C)c1 | 99.6%
14 | O=C(CSCc1ccccc1)Nc1nnc(Cc2ccc(Cl)cc2)s1 | 97.3%
15 | COC(=O)c1ccc(C(=O)N2CCN(C(=O)c3ccc(OC)cc3)CC2)nc1 | 110%
16 | CC(=O)c1c(C)[nH]c(C(=O)OCC(=O)NCc2ccccc2Cl)c1C | 96.4%
17 | COC(=O)C(OC(=O)c1ccc(Cn2cncn2)cc1)c1ccccc1 (configuration not stated) | 108%
18 | COC(=O)C(Nc1nccs1)(OC)C(F)(F)F (configuration not stated) | 91.1%
19 | COC(=O)\C1=C\N(NC(=O)C2=CC(=CC=C2Cl)Br)C(=O)C3=CC=CC=C13 | 91.6%
20 | COC(=O)c1cc(S(=O)(=O)NCCc2sccc2C)c[nH]1 | 102%
21 | COC(=O)c1c(C)[nH]c(C(=O)N2CCOC(C)C2)c1C (configuration not stated) | 102%
22 | CCOC(=O)c1cc(S(=O)(=O)N(C)CC(=O)Nc2cccc(C)n2)cn1C | 104%

Structural class, those above containing two or more sulfur atoms.
Row | SMILES | growth
1 | CCCCn1c(COC(=O)c2ccc(Cl)s2)nc2cc(S(N)(=O)=O)ccc21 | 96.5%
3 | Cc1nc2ccc(S(=O)(=O)NC(CC(C)C)C(=O)N3CCCCCC3)cc2s1 (configuration not stated) | 107%
6 | CCCN(CCC)S(=O)(=O)c1ccc2c(c1)N(CC(=O)OC)C(=O)CS2 | 112%
14 | O=C(CSCc1ccccc1)Nc1nnc(Cc2ccc(Cl)cc2)s1 | 97.3%
20 | COC(=O)c1cc(S(=O)(=O)NCCc2sccc2C)c[nH]1 | 102%
